Results from article PMC10744335.
These are yes or no findings as the source states them, for the method shown. In cells and extracts the contact can be indirect. Here binding means that the protein was enriched with, or labelled near, the bait; the list need not be complete. Where a sequence is shown, tags or fusion partners need not be part of it.

The chains behind the UniProt entries cited, without tags or fusion partners. Where a name states a change or a piece, a line headed by the entry shows the natural chain unless it says otherwise.
UniProt P07355: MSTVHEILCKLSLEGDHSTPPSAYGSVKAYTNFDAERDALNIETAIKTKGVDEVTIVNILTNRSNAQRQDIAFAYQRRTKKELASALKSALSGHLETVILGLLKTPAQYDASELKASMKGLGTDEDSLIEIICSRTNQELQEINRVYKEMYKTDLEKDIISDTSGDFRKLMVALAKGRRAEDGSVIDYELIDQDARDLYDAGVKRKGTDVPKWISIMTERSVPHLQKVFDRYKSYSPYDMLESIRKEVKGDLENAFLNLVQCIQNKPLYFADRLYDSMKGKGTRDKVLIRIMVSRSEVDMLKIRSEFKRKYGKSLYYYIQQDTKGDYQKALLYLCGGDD
UniProt P16403: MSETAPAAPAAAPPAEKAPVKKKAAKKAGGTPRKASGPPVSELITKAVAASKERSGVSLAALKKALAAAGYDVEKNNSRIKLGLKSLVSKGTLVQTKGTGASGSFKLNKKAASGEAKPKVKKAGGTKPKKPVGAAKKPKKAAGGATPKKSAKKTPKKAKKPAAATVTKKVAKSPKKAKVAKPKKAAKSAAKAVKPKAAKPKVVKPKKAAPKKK
UniProt Q9NYF8: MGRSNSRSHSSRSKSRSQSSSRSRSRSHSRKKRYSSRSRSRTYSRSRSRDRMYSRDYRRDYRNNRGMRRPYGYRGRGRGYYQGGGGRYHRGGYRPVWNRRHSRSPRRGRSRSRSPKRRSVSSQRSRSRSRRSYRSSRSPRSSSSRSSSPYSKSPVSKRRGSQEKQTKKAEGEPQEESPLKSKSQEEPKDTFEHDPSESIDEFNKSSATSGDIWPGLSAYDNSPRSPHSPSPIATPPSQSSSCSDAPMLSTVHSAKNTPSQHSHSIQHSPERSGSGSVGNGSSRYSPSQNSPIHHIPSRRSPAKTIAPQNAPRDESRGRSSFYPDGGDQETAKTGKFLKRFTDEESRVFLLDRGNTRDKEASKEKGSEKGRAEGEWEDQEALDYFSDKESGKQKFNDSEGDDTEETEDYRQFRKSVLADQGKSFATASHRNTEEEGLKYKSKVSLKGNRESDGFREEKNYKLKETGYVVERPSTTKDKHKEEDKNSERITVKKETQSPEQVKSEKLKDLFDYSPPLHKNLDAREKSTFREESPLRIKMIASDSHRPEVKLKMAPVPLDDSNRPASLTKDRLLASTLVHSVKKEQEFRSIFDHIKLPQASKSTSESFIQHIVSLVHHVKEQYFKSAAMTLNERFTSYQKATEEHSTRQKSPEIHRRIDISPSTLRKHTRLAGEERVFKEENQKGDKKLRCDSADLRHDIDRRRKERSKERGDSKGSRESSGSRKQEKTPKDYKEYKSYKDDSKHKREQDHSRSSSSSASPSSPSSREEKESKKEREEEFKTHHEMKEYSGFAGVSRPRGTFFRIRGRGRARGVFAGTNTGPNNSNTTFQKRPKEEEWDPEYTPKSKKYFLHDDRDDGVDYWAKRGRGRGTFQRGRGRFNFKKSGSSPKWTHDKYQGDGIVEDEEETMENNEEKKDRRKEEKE
UniProt Q07955: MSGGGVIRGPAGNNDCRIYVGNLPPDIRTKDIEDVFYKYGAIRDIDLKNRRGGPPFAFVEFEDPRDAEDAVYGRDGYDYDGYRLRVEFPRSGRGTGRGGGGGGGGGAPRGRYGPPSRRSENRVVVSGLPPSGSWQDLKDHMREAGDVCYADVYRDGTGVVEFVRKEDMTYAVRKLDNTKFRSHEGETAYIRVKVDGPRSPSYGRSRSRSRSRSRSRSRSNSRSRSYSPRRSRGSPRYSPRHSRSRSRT
UniProt P62140: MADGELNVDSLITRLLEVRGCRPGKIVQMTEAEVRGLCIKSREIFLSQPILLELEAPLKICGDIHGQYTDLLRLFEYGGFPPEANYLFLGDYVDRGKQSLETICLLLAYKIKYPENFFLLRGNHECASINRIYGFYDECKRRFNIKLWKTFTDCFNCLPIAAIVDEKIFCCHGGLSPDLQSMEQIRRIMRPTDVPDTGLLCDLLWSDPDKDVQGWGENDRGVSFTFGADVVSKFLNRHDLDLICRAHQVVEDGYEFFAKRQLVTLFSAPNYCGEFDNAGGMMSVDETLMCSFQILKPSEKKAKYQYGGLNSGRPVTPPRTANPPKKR
UniProt P31943: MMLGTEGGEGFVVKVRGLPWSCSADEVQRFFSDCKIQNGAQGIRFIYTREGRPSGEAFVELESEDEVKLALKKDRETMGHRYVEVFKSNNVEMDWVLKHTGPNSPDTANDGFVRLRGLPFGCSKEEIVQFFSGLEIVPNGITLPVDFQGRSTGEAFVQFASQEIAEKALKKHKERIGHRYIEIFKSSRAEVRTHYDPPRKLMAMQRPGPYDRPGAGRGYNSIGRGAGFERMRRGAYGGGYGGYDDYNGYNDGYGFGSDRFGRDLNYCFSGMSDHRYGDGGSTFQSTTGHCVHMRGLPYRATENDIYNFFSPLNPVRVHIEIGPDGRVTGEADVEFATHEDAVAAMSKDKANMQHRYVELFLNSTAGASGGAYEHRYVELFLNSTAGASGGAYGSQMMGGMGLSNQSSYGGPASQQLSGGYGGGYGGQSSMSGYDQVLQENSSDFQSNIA
UniProt P67809: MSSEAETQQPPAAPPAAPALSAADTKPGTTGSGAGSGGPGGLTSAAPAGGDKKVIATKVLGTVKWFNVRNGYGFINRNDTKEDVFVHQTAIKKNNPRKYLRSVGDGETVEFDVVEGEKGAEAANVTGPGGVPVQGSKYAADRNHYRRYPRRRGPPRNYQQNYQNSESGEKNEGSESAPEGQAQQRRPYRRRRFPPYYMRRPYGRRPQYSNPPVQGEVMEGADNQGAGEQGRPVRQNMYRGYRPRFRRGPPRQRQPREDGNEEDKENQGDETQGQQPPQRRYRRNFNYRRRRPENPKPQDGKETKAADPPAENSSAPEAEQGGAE
UniProt P38159: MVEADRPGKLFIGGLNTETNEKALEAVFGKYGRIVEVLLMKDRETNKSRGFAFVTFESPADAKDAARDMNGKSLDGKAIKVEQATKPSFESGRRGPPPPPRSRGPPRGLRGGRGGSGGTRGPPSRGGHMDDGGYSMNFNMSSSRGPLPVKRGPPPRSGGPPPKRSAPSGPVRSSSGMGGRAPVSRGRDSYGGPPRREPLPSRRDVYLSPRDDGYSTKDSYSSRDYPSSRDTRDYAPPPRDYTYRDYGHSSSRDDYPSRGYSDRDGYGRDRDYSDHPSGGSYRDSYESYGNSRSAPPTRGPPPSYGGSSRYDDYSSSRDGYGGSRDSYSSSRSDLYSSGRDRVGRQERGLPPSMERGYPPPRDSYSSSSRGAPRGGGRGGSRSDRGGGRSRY

T1: GST-tagged bacterially expressed TIMAP protein (human) (UniProt Q96T49)
T1 sequence: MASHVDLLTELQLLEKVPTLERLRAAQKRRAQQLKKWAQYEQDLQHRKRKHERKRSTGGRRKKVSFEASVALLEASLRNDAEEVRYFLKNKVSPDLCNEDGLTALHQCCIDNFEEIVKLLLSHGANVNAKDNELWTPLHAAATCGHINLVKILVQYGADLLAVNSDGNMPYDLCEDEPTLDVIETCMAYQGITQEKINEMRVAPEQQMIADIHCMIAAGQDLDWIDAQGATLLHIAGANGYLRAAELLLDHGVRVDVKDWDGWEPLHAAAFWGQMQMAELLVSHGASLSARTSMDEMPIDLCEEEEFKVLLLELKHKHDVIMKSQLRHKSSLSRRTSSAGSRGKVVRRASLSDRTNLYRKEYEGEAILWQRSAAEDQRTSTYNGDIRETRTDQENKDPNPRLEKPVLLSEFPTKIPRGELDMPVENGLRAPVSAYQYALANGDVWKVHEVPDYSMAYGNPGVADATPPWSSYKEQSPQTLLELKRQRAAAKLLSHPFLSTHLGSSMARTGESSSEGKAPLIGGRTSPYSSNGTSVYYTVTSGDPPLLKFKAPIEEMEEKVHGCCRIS

B1: Thyroid-hormone-receptor-associated protein 3 (protein, UniProt Q9Y2W1 1-955)
chain: MSKTNKSKSGSRSSRSRSASRSRSRSFSKSRSRSRSLSRSRKRRLSSRSRSRSYSPAHNRERNHPRVYQNRDFRGHNRGYRRPYYFRGRNRGFYPWGQYNRGGYGNYRSNWQNYRQAYSPRRGRSRSRSPKRRSPSPRSRSHSRNSDKSSSDRSRRSSSSRSSSNHSRVESSKRKSAKEKKSSSKDSRPSQAAGDNQGDEAKEQTFSGGTSQDTKASESSKPWPDATYGTGSASRASAVSELSPRERSPALKSPLQSVVVRRRSPRPSPVPKPSPPLSSTSQMGSTLPSGAGYQSGTHQGQFDHGSGSLSPSKKSPVGKSPPSTGSTYGSSQKEESAASGGAAYTKRYLEEQKTENGKDKEQKQTNTDKEKIKEKGSFSDTGLGDGKMKSDSFAPKTDSEKPFRGSQSPKRYKLRDDFEKKMADFHKEEMDDQDKDKAKGRKESEFDDEPKFMSKVIGANKNQEEEKSGKWEGLVYAPPGKEKQRKTEELEEESFPERSKKEDRGKRSEGGHRGFVPEKNFRVTAYKAVQEKSSSPPPRKTSESRDKLGAKGDFPTGKSSFSITREAQVNVRMDSFDEDLARPSGLLAQERKLCRDLVHSNKKEQEFRSIFQHIQSAQSQRSPSELFAQHIVTIVHHVKEHHFGSSGMTLHERFTKYLKRGTEQEAAKNKKSPEIHRRIDISPSTFRKHGLAHDEMKSPREPGYKAEGKYKDDPVDLRLDIERRKKHKERDLKRGKSRESVDSRDSSHSRERSAEKTEKTHKGSKKQKKHRRARDRSRSSSSSSQSSHSYKAEEYTEETEEREESTTGFDKSRLGTKDFVGPSERGGGRARGTFQFRARGRGWGRGNYSGNNNNNSNNDFQKRNREEEWDPEYTPKSKKYYLHDDREGEGSDKWVSRGRGRGAFPRGRGRFMFRKSSTSPKWAHDKFSGEEGEIEDDESGTENREEKDNIQPTTE
B2: Condensin-2 complex subunit H2 (protein, UniProt Q6IBW4 1-605)
chain: MEDVEARFAHLLQPIRDLTKNWEVDVAAQLGEYLEELDQICISFDEGKTTMNFIEAALLIQGSACVYSKKVEYLYSLVYQALDFISGKRRAKQLSSVQEDRANGVASSGVPQEAENEFLSLDDFPDSRTNVDLKNDQTPSEVLIIPLLPMALVAPDEMEKNNNPLYSRQGEVLASRKDFRMNTCVPHPRGAFMLEPEGMSPMEPAGVSPMPGTQKDTGRTEEQPMEVSVCRSPVPALGFSQEPGPSPEGPMPLGGGEDEDAEEAVELPEASAPKAALEPKESRSPQQSAALPRRYMLREREGAPEPASCVKETPDPWQSLDPFDSLESKPFKKGRPYSVPPCVEEALGQKRKRKGAAKLQDFHQWYLAAYADHADSRRLRRKGPSFADMEVLYWTHVKEQLETLRKLQRREVAEQWLRPAEEDHLEDSLEDLGAADDFLEPEEYMEPEGADPREAADLDAVPMSLSYEELVRRNVELFIATSQKFVQETELSQRIRDWEDTVQPLLQEQEQHVPFDIHTYGDQLVSRFPQLNEWCPFAELVAGQPAFEVCRSMLASLQLANDYTVEITQQPGLEMAVDTMSLRLLTHQRAHKRFQTYAAPSMAQP
B3: Polymerase delta-interacting protein 3 (protein, UniProt Q9BY77 1-421)
chain: MADISLDELIRKRGAAAKGRLNARPGVGGVRSRVGIQQGLLSQSTRTATFQQRFDARQKIGLSDARLKLGVKDAREKLLQKDARFRIKGKVQDAREMLNSRKQQTTVPQKPRQVADAREKISLKRSSPAAFINPPIGTVTPALKLTKTIQVPQQKAMAPLHPHPAGMRINVVNNHQAKQNLYDLDEDDDGIASVPTKQMKFAASGGFLHHMAGLSSSKLSMSKALPLTKVVQNDAYTAPALPSSIRTKALTNMSRTLVNKEEPPKELPAAEPVLSPLEGTKMTVNNLHPRVTEEDIVELFCVCGALKRARLVHPGVAEVVFVKKDDAITAYKKYNNRCLDGQPMKCNLHMNGNVITSDQPILLRLSDSPSMKKESELPRRVNSASSSNPPAEVDPDTILKALFKSSGASVTTQPTEFKIKL
B4: BTB/POZ domain-containing adapter for CUL3-mediated RhoA degradation protein 2 (protein, UniProt Q13829 1-316)
chain: MSGDTCLCPASGAKPKLSGFKGGGLGNKYVQLNVGGSLYYTTVRALTRHDTMLKAMFSGRMEVLTDKEGWILIDRCGKHFGTILNYLRDDTITLPQNRQEIKELMAEAKYYLIQGLVNMCQSALQDKKDSYQPVCNIPIITSLKEEERLIESSTKPVVKLLYNRSNNKYSYTSNSDDHLLKNIELFDKLSLRFNGRVLFIKDVIGDEICCWSFYGQGRKLAEVCCTSIVYATEKKQTKVEFPEARIYEETLNVLLYETPRVPDNSLLEATSRSRSQASPSEDEETFELRDRVRRIHVKRYSTYDDRQLGHQSTHRD
B5: Carbonyl reductase [NADPH] 1 (enzyme, UniProt P16152 1-277)
chain: MSSGIHVALVTGGNKGIGLAIVRDLCRLFSGDVVLTARDVTRGQAAVQQLQAEGLSPRFHQLDIDDLQSIRALRDFLRKEYGGLDVLVNNAGIAFKVADPTPFHIQAEVTMKTNFFGTRDVCTELLPLIKPQGRVVNVSSIMSVRALKSCSPELQQKFRSETITEEELVGLMNKFVEDTKKGVHQKEGWPSSAYGVTKIGVTVLSRIHARKLSEQRKGDKILLNACCPGWVRTDMAGPKATKSPEEGAETPVYLALLPPDAEGPHGQFVSEKRVEQW
B6: Carbonyl reductase [NADPH] 3 (enzyme, UniProt O75828 1-277)
chain: MSSCSRVALVTGANRGIGLAIARELCRQFSGDVVLTARDVARGQAAVQQLQAEGLSPRFHQLDIDDLQSIRALRDFLRKEYGGLNVLVNNAAVAFKSDDPMPFDIKAEMTLKTNFFATRNMCNELLPIMKPHGRVVNISSLQCLRAFENCSEDLQERFHSETLTEGDLVDLMKKFVEDTKNEVHEREGWPNSPYGVSKLGVTVLSRILARRLDEKRKADRILVNACCPGPVKTDMDGKDSIRTVEEGAETPVYLALLPPDATEPQGQLVHDKVVQNW
B7: Pyrroline-5-carboxylate reductase 2 (enzyme, UniProt Q96C36 1-320)
chain: MSVGFIGAGQLAYALARGFTAAGILSAHKIIASSPEMNLPTVSALRKMGVNLTRSNKETVKHSDVLFLAVKPHIIPFILDEIGADVQARHIVVSCAAGVTISSVEKKLMAFQPAPKVIRCMTNTPVVVQEGATVYATGTHALVEDGQLLEQLMSSVGFCTEVEEDLIDAVTGLSGSGPAYAFMALDALADGGVKMGLPRRLAIQLGAQALLGAAKMLLDSEQHPCQLKDNVCSPGGATIHALHFLESGGFRSLLINAVEASCIRTRELQSMADQEKISPAALKKTLLDRVKLESPTVSTLTPSSPGKLLTRSLALGGKKD
B8: Pyrroline-5-carboxylate reductase 1, mitochondrial (enzyme, UniProt P32322 1-319)
chain: MSVGFIGAGQLAFALAKGFTAAGVLAAHKIMASSPDMDLATVSALRKMGVKLTPHNKETVQHSDVLFLAVKPHIIPFILDEIGADIEDRHIVVSCAAGVTISSIEKKLSAFRPAPRVIRCMTNTPVVVREGATVYATGTHAQVEDGRLMEQLLSSVGFCTEVEEDLIDAVTGLSGSGPAYAFTALDALADGGVKMGLPRRLAVRLGAQALLGAAKMLLHSEQHPGQLKDNVSSPGGATIHALHVLESGGFRSLLINAVEASCIRTRELQSMADQEQVSPAAIKKTILDKVKLDSPAGTALSPSGHTKLLPRSLAPAGKD
B9: Heterogeneous nuclear ribonucleoprotein A0 (protein, UniProt Q13151 1-305)
chain: MENSQLCKLFIGGLNVQTSESGLRGHFEAFGTLTDCVVVVNPQTKRSRCFGFVTYSNVEEADAAMAASPHAVDGNTVELKRAVSREDSARPGAHAKVKKLFVGGLKGDVAEGDLIEHFSQFGTVEKAEIIADKQSGKKRGFGFVYFQNHDAADKAAVVKFHPIQGHRVEVKKAVPKEDIYSGGGGGGSRSSRGGRGGRGRGGGRDQNGLSKGGGGGYNSYGGYGGGGGGGYNAYGGGGGGSSYGGSDYGNGFGGFGSYSQHQSSYGPMKSGGGGGGGGSSWGGRSNSGPYRGGYGGGGGYGGSSF
B10: ATP synthase subunit O, mitochondrial (protein, UniProt P48047 24-213)
chain: FAKLVRPPVQVYGIEGRYATALYSAASKQNKLEQVEKELLRVAQILKEPKVAASVLNPYVKRSIKVKSLNDITAKERFSPLTTNLINLLAENGRLSNTQGVVSAFSTMMSVHRGEVPCTVTSASPLEEATLSELKTVLKSFLSQGQVLKLEAKTDPSILGGMIVRIGEKYVDMSVKTKIQKLGRAMREIV
B11: Trans-2,3-enoyl-CoA reductase-like (protein, UniProt Q5HYJ1 1-363)
chain: MFKRHKSLASERKRALLSQRATRFILKDDMRNFHFLSKLVLSAGPLRPTPAVKHSKTTHFEIEIFDAQTRKQICILDKVTQSSTIHDVKQKFHKACPKWYPSRVGLQLECGGPFLKDYITIQSIAASSIVTLYATDLGQQVSWTTVFLAEYTGPLLIYLLFYLRIPCIYDGKESARRLRHPVVHLACFCHCIHYIRYLLETLFVHKVSAGHTPLKNLIMSCAFYWGFTSWIAYYINHPLYTPPSFGNRQITVSAINFLICEAGNHFINVMLSHPNHTGNNACFPSPNYNPFTWMFFLVSCPNYTYEIGSWISFTVMTQTLPVGIFTLLMSIQMSLWAQKKHKIYLRKFNSYIHRKSAMIPFIL
B12: Serine/arginine-rich splicing factor 3 (protein, UniProt P84103 1-164)
chain: MHRDSCPLDCKVYVGNLGNNGNKTELERAFGYYGPLRSVWVARNPPGFAFVEFEDPRDAADAVRELDGRTLCGCRVRVELSNGEKRSRNRGPPPSWGRRPRDDYRRRSPPPRRRSPRRRSFSRSRSRSLSRDRRRERSLSRERNHKPSRSFSRSRSRSRSNERK

Target: T1, GST-tagged bacterially expressed TIMAP protein (human)
Assay: affinity purification with mass spectrometry; GST–TIMAP pull-down from the nuclear fraction of undifferentiated SH-SY5Y cells; bound proteins separated on SDS-PAGE, MS/MS analysis; only the target purified

binding, binds:
Annexin A2 (from UniProt P07355 1-339)
Histone H1.2 (from UniProt P16403 1-213)
Bcl-2-associated transcription factor 1 (from UniProt Q9NYF8 1-920)
Serine/arginine-rich splicing factor 1 (from UniProt Q07955 1-248)
protein phosphatase 1 catalytic subunit, δ isoform (PP1cδ) (from UniProt P62140 1-327) (enzyme)
Heterogeneous nuclear ribonucleoprotein H (from UniProt P31943 1-449)
Nuclease-sensitive element-binding protein 1 (from UniProt P67809 1-324)
RNA-binding motif protein (from UniProt P38159 1-391)
B1
B2
B3
B4
B5
B6
B7
B8
B9
B10
B11
B12
